{"source": "PubChem BioAssay AID504744 (Drosophila RNAi Screening Center, 2011)", "purpose": "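Identify dsRNAs that increase or decrease phospho-dAkt after insulin treatment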 (primary screen)", "cells": "Drosophila Kc167 cells", "reagents": "long dsRNA against Drosophila genes, 250 ng dsRNA per well of a 384-well plate", "duration": "3 days of knock-down, then overnight serum-free starvation before stimulation", "challenge": "bovine insulin at 387 nM for 10 minutes after 12 h without serum", "measured": "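Per-well phospho-dAkt level from an in-cell fluorescent antibody stain, divided by a DNA-dye signal; log2 residuals turned into z-scores that take cell number into account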", "active means": "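Hit in the insulin screen when the two-replicate mean z-score is more extreme than plus or minus 2.5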", "note": "The screen tested about 23,000 reagents; this is an unselected part of those with a known target gene and a result. Over the whole deposit, 98 (0.43%) are marked active. 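Only hit calls are given; the phospho-dAkt signals, z-scores and hit direction were not deposited.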 Reagents against one gene are numbered here. Names joined by + are all predicted targets of the reagent."}
{"predicted target": "Polr3G (GeneID 39941)", "dsRNA no.": 1, "activity call": "inactive"}
{"predicted target": "CAH16 (GeneID 50101)", "dsRNA no.": 1, "activity call": "inactive"}
{"predicted target": "CG8149 (GeneID 41137)", "dsRNA no.": 1, "activity call": "inactive"}
{"predicted target": "Mst57Da + alpha4GT2", "dsRNA no.": 1, "activity call": "inactive"}
{"predicted target": "Cyp313a5 (GeneID 41486)", "dsRNA no.": 1, "activity call": "inactive"}
{"predicted target": "l(2)41Ab (GeneID 5740691)", "dsRNA no.": 1, "activity call": "inactive"}
{"predicted target": "CG15034 (GeneID 31670)", "dsRNA no.": 1, "activity call": "inactive"}
{"predicted target": "CG8119 (GeneID 32500)", "dsRNA no.": 1, "activity call": "inactive"}
{"predicted target": "CG12608 (GeneID 32463)", "dsRNA no.": 1, "activity call": "inactive"}
{"predicted target": "CG2528 (GeneID 35435)", "dsRNA no.": 1, "activity call": "inactive"}
{"predicted target": "RAF2 (GeneID 39821)", "dsRNA no.": 1, "activity call": "inactive"}
{"predicted target": "RAF2 (GeneID 39821)", "dsRNA no.": 2, "activity call": "inactive"}
{"predicted target": "Sr-CII (GeneID 44219)", "dsRNA no.": 1, "activity call": "inactive"}
{"predicted target": "myd (GeneID 42303)", "dsRNA no.": 1, "activity call": "inactive"}
{"predicted target": "myd (GeneID 42303)", "dsRNA no.": 2, "activity call": "inactive"}
{"predicted target": "l(1)G0320 (GeneID 326234)", "dsRNA no.": 1, "activity call": "inactive"}
{"predicted target": "Plzf (GeneID 34622)", "dsRNA no.": 1, "activity call": "inactive"}
{"predicted target": "mIF3 (GeneID 36335)", "dsRNA no.": 1, "activity call": "inactive"}
{"predicted target": "Atg5 (GeneID 31666)", "dsRNA no.": 1, "activity call": "inactive"}
{"predicted target": "CG16959 (GeneID 39648)", "dsRNA no.": 1, "activity call": "inactive"}
{"predicted target": "RpL18A (GeneID 36985)", "dsRNA no.": 1, "activity call": "inactive"}
{"predicted target": "CR9337 (GeneID 3885658)", "dsRNA no.": 1, "activity call": "inactive"}
{"predicted target": "nsl1 (GeneID 41911)", "dsRNA no.": 1, "activity call": "inactive"}
{"predicted target": "CG17193 (GeneID 50044)", "dsRNA no.": 1, "activity call": "inactive"}
{"predicted target": "Strip (GeneID 38412)", "dsRNA no.": 1, "activity call": "inactive"}
{"predicted target": "srw (GeneID 38525)", "dsRNA no.": 1, "activity call": "inactive"}
{"predicted target": "Syn1 + CG7370", "dsRNA no.": 1, "activity call": "inactive"}
{"predicted target": "Cisd2 (GeneID 43459)", "dsRNA no.": 1, "activity call": "inactive"}
{"predicted target": "CG32050 (retired record) (GeneID 39154)", "dsRNA no.": 1, "activity call": "inactive"}
{"predicted target": "CG9582 (GeneID 34230)", "dsRNA no.": 1, "activity call": "inactive"}
{"predicted target": "CG32719 (GeneID 318169)", "dsRNA no.": 1, "activity call": "inactive"}
{"predicted target": "CG7289 (GeneID 33372)", "dsRNA no.": 1, "activity call": "inactive"}
{"predicted target": "HPS1 (GeneID 36656)", "dsRNA no.": 1, "activity call": "inactive"}
{"predicted target": "Cdk4 (GeneID 36854)", "dsRNA no.": 1, "activity call": "inactive"}
{"predicted target": "CG13361 (GeneID 31019)", "dsRNA no.": 1, "activity call": "inactive"}
{"predicted target": "CG5056 (GeneID 34406)", "dsRNA no.": 1, "activity call": "inactive"}

4 of these entries, reformatted:
CG12608 (GeneID 32463): activity call = inactive
CG2528 (GeneID 35435): activity call = inactive
RAF2 (GeneID 39821) #1: activity call = inactive
RAF2 (GeneID 39821) #2: activity call = inactive

Next records follow:
{"predicted target": "CG17385 (GeneID 36603)", "dsRNA no.": 1, "activity call": "inactive"}
{"predicted target": "CG17571 (GeneID 35409)", "dsRNA no.": 1, "activity call": "inactive"}
{"predicted target": "CG17571 (GeneID 35409)", "dsRNA no.": 2, "activity call": "inactive"}
{"predicted target": "CG15040 (GeneID 32848)", "dsRNA no.": 1, "activity call": "inactive"}
{"predicted target": "CG15040 (GeneID 32848)", "dsRNA no.": 2, "activity call": "inactive"}
{"predicted target": "coil (GeneID 35785)", "dsRNA no.": 1, "activity call": "inactive"}
{"predicted target": "Cen (GeneID 35330)", "dsRNA no.": 1, "activity call": "inactive"}
{"predicted target": "Alp6 (GeneID 35981)", "dsRNA no.": 1, "activity call": "inactive"}
{"predicted target": "shd (GeneID 39592)", "dsRNA no.": 1, "activity call": "inactive"}
{"predicted target": "CG4438 (GeneID 34257)", "dsRNA no.": 1, "activity call": "inactive"}
{"predicted target": "CG14853 (GeneID 41771)", "dsRNA no.": 1, "activity call": "inactive"}
{"predicted target": "CG14853 (GeneID 41771)", "dsRNA no.": 2, "activity call": "inactive"}
{"predicted target": "CG31922 (GeneID 319028)", "dsRNA no.": 1, "activity call": "inactive"}
{"predicted target": "muc (GeneID 34021)", "dsRNA no.": 1, "activity call": "inactive"}
{"predicted target": "muc (GeneID 34021)", "dsRNA no.": 2, "activity call": "inactive"}
{"predicted target": "CG4375 (GeneID 33278)", "dsRNA no.": 1, "activity call": "inactive"}
{"predicted target": "CG33791 + CG12105 + CG18170", "dsRNA no.": 1, "activity call": "inactive"}
{"predicted target": "Uev1A (GeneID 38613)", "dsRNA no.": 1, "activity call": "inactive"}
{"predicted target": "sip2 (GeneID 33979)", "dsRNA no.": 1, "activity call": "inactive"}
{"predicted target": "CG13192 (GeneID 36259)", "dsRNA no.": 1, "activity call": "inactive"}
{"predicted target": "hng3 (GeneID 38090)", "dsRNA no.": 1, "activity call": "inactive"}
{"predicted target": "MAN1 (GeneID 37838)", "dsRNA no.": 1, "activity call": "inactive"}
{"predicted target": "ihog (GeneID 33972)", "dsRNA no.": 1, "activity call": "inactive"}
{"predicted target": "CG13344 (GeneID 36541)", "dsRNA no.": 1, "activity call": "inactive"}
{"predicted target": "janB (GeneID 43568)", "dsRNA no.": 1, "activity call": "inactive"}
{"predicted target": "CG12511 (GeneID 33797)", "dsRNA no.": 1, "activity call": "inactive"}
{"predicted target": "CG8128 (GeneID 32504)", "dsRNA no.": 1, "activity call": "inactive"}
{"predicted target": "CG18476 (GeneID 41404)", "dsRNA no.": 1, "activity call": "inactive"}
{"predicted target": "CG31075 (GeneID 43244)", "dsRNA no.": 1, "activity call": "inactive"}
{"predicted target": "CG5079 (GeneID 43089)", "dsRNA no.": 1, "activity call": "inactive"}
{"predicted target": "Dek (GeneID 47906)", "dsRNA no.": 1, "activity call": "inactive"}
{"predicted target": "Rox8 (GeneID 42848)", "dsRNA no.": 1, "activity call": "inactive"}
{"predicted target": "CG11475 (GeneID 37513)", "dsRNA no.": 1, "activity call": "inactive"}
{"predicted target": "Chmp1 (GeneID 40036)", "dsRNA no.": 1, "activity call": "inactive"}
{"predicted target": "orion (GeneID 31712)", "dsRNA no.": 1, "activity call": "inactive"}
{"predicted target": "orion (GeneID 31712)", "dsRNA no.": 2, "activity call": "inactive"}
{"predicted target": "CG30036 (GeneID 246408)", "dsRNA no.": 1, "activity call": "inactive"}
